Results on one substance are retold here after doi:10.1101/2023.05.25.542248.

Chains of the proteins cited; added tags and fusions are not shown.
UniProt O42478: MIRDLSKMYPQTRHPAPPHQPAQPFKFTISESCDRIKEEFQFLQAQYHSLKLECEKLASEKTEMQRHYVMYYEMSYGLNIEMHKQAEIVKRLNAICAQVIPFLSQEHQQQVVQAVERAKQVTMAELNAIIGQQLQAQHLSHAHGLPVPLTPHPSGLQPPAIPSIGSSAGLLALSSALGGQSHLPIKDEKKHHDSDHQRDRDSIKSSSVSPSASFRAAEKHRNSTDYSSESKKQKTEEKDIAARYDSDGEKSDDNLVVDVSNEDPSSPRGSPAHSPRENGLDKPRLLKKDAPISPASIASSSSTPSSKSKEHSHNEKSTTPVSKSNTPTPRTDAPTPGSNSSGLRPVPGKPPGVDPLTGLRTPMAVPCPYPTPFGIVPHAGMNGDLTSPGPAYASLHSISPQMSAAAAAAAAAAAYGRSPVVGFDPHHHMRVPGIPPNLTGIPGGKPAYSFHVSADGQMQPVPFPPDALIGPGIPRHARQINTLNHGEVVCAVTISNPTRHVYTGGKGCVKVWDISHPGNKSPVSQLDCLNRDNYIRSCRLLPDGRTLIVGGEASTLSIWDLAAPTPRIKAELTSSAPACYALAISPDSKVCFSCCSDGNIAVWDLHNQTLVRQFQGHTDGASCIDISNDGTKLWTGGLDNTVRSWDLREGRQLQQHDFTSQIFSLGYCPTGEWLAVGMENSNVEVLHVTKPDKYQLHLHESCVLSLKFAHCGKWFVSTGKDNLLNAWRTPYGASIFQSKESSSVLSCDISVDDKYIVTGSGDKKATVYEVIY

These are yes or no findings as the source states them, for the method shown. Binding seen in cells or lysates may run through a third protein. Some binding calls cover weakened binding; strength is not graded here. Sequences can lack the tags named with a protein.

The target in the assay is T1, mBarhl1-Myc (mouse BarH-like 1 homeobox protein, Myc-tagged) (mouse) (UniProt P63157).
T1 sequence: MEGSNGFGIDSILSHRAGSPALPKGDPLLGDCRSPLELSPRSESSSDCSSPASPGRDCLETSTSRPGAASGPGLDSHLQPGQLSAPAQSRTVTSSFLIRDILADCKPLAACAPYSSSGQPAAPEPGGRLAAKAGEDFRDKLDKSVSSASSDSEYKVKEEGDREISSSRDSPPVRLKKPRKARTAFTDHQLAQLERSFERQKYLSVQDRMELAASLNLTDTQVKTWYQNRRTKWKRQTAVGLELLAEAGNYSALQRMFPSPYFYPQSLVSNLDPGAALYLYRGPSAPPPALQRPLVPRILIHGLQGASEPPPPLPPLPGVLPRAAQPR
Put plainly: co-IP.

For the substance “Groucho 4 (Gro4), tagged (from UniProt O42478 1-772)”, the binding entry is on record as “binds”.
